The results in this text go back to article PMC9329959, “A Feedback Regulatory Loop Involving dTrbd/dTak1 in Controlling IMD Signaling in Drosophila Melanogaster” (Frontiers in Immunology, 2022).

In experiment [1] the target is Myc-dTrbd^FL (Drosophila melanogaster) (UniProt Q9VH90). The experiment in a line: SDD-AGE; lysates of transfected S2 cells (50 mM Tris-HCl pH 7.5, 150 mM NaCl, 0.5% Triton X-100, 10% glycerol); 1.5% agarose gel with 0.1% SDS; immunoblot. A general note: Immunoblotting shows a protein as a band on a membrane.
Experiment [2] deals with dTrbd (endogenous, fat body) (Drosophila melanogaster (endogenous in w1118 adult fat bodies)) (UniProt Q9VH90). Put plainly: SDD-AGE; fat bodies of male w1118 adults 0, 6 and 12 h after infection with E. coli (also Relish^E20 mutants); immunoblot.
Experiment [3] concerns the target T1, GST-tagged dTrbd^FL (Drosophila melanogaster), Q9VH90.
T1 chain: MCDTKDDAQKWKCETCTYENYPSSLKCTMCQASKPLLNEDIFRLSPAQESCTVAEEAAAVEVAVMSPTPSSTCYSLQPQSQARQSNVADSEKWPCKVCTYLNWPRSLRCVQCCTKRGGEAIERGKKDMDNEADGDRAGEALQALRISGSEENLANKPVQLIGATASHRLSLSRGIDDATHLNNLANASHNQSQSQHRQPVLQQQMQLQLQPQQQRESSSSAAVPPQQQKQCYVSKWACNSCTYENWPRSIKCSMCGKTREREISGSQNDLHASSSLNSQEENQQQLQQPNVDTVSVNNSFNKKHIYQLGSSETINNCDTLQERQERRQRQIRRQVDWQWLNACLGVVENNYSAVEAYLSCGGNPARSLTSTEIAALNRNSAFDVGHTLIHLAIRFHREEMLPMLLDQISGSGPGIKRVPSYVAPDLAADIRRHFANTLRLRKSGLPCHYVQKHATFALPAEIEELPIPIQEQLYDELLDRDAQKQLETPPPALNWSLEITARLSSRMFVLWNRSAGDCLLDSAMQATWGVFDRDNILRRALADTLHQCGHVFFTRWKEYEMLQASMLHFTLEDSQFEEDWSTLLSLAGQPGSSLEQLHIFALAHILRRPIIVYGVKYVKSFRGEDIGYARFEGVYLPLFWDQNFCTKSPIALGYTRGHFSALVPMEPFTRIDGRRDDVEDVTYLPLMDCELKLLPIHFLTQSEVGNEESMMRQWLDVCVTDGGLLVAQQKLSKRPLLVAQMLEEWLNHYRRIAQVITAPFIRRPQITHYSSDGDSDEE
The experiment in a line: pull-down; GST pull-down: purified proteins incubated with Glutathione Sepharose 4B at 4°C for 3 h, washed with PBS with 1% TritonX-100 3 times, Western blot; both purified. The following applies: remark: other sources report otherwise.

Results are given in words; binding and its absence hold for the method and conditions named. Some results given as binding are weak or reduced against the parent protein; the word gives no strength. For part of these data: Where a sequence is shown, tags or fusion partners need not be part of it.

B1: Myc-dTrbd^FL (enzyme, UniProt Q9VH90 1-778)
chain: MCDTKDDAQKWKCETCTYENYPSSLKCTMCQASKPLLNEDIFRLSPAQESCTVAEEAAAVEVAVMSPTPSSTCYSLQPQSQARQSNVADSEKWPCKVCTYLNWPRSLRCVQCCTKRGGEAIERGKKDMDNEADGDRAGEALQALRISGSEENLANKPVQLIGATASHRLSLSRGIDDATHLNNLANASHNQSQSQHRQPVLQQQMQLQLQPQQQRESSSSAAVPPQQQKQCYVSKWACNSCTYENWPRSIKCSMCGKTREREISGSQNDLHASSSLNSQEENQQQLQQPNVDTVSVNNSFNKKHIYQLGSSETINNCDTLQERQERRQRQIRRQVDWQWLNACLGVVENNYSAVEAYLSCGGNPARSLTSTEIAALNRNSAFDVGHTLIHLAIRFHREEMLPMLLDQISGSGPGIKRVPSYVAPDLAADIRRHFANTLRLRKSGLPCHYVQKHATFALPAEIEELPIPIQEQLYDELLDRDAQKQLETPPPALNWSLEITARLSSRMFVLWNRSAGDCLLDSAMQATWGVFDRDNILRRALADTLHQCGHVFFTRWKEYEMLQASMLHFTLEDSQFEEDWSTLLSLAGQPGSSLEQLHIFALAHILRRPIIVYGVKYVKSFRGEDIGYARFEGVYLPLFWDQNFCTKSPIALGYTRGHFSALVPMEPFTRIDGRRDDVEDVTYLPLMDCELKLLPIHFLTQSEVGNEESMMRQWLDVCVTDGGLLVAQQKLSKRPLLVAQMLEEWLNHYRRIAQVITAPFIRRPQITHYSSDGDSDEE
B1: the binding result in experiment [1] is reported as “binds”.

B2: dTrbd (endogenous, fat body) (enzyme, UniProt Q9VH90 1-778)
chain: MCDTKDDAQKWKCETCTYENYPSSLKCTMCQASKPLLNEDIFRLSPAQESCTVAEEAAAVEVAVMSPTPSSTCYSLQPQSQARQSNVADSEKWPCKVCTYLNWPRSLRCVQCCTKRGGEAIERGKKDMDNEADGDRAGEALQALRISGSEENLANKPVQLIGATASHRLSLSRGIDDATHLNNLANASHNQSQSQHRQPVLQQQMQLQLQPQQQRESSSSAAVPPQQQKQCYVSKWACNSCTYENWPRSIKCSMCGKTREREISGSQNDLHASSSLNSQEENQQQLQQPNVDTVSVNNSFNKKHIYQLGSSETINNCDTLQERQERRQRQIRRQVDWQWLNACLGVVENNYSAVEAYLSCGGNPARSLTSTEIAALNRNSAFDVGHTLIHLAIRFHREEMLPMLLDQISGSGPGIKRVPSYVAPDLAADIRRHFANTLRLRKSGLPCHYVQKHATFALPAEIEELPIPIQEQLYDELLDRDAQKQLETPPPALNWSLEITARLSSRMFVLWNRSAGDCLLDSAMQATWGVFDRDNILRRALADTLHQCGHVFFTRWKEYEMLQASMLHFTLEDSQFEEDWSTLLSLAGQPGSSLEQLHIFALAHILRRPIIVYGVKYVKSFRGEDIGYARFEGVYLPLFWDQNFCTKSPIALGYTRGHFSALVPMEPFTRIDGRRDDVEDVTYLPLMDCELKLLPIHFLTQSEVGNEESMMRQWLDVCVTDGGLLVAQQKLSKRPLLVAQMLEEWLNHYRRIAQVITAPFIRRPQITHYSSDGDSDEE
In the case of B2, the binding entry in experiment [2] is “binds”.

B3: His-tagged dTak1, Q9V3Q6 1-678 (enzyme)
chain: MATASLDALQAAYVDFSEITLREKVGHGSYGVVCKAVWRDKLVAVKEFFASAEQKDIEKEVKQLSRVKHPNIIALHGISSYQQATYLIMEFAEGGSLHNFLHGKVKPAYSLAHAMSWARQCAEGLAYLHAMTPKPLIHRDVKPLNLLLTNKGRNLKICDFGTVADKSTMMTNNRGSAAWMAPEVFEGSKYTEKCDIFSWAIVLWEVLSRKQPFKGIDNAYTIQWKIYKGERPPLLTTCPKRIEDLMTACWKTVPEDRPSMQYIVGVMHEIVKDYTGADKALEYTFVNQQIVTKESDGTVAAQPDSLSSQEGELSPSSTQLTPTTAANANVNAIAISKTTTSSMTENTSSTSSDITPTNSGQLDNNPLFYMVTNRWDAIPEEESNESRNDSFNLTSSAEATQRLETIRNGMILMACKPMEQLTLDVEANGFDLSPSESSSSSTNAKSDGRERLTVTDTKPVMMTTDLSNNNGGIHAHSNGLLSHANGWQARDEELQEQEHEQEIVNSLDVDVDPDEDENDGTEQSLAEILDPELQPEPPIPNDAESQLIYRDHRHMAKEYLSVDTNLYYAQDFKDKLIVQMDRTEREQKQELLRKMKDKEGLQSLYNNLQQQYASRQLAAGHHPQPHPHPHPNQLQHPHSHPPMHFLQDEGCGLLPGSVCGGSESVEEGWVVIPPHHNA
On to B3, for which the binding entry in experiment [3] is listed as “no binding”.
